Measured values as given in patent US20210095036A1.
Results are given in words; binding and its absence hold for the method and conditions named. Some entries that bind do so weakly or less than the wild type.

Protein sequences, listed by entry. Tags and fused reporters are not part of them. Lines headed by an entry give the natural chain unless they say otherwise; changes in a name come on top.
UniProt P01732: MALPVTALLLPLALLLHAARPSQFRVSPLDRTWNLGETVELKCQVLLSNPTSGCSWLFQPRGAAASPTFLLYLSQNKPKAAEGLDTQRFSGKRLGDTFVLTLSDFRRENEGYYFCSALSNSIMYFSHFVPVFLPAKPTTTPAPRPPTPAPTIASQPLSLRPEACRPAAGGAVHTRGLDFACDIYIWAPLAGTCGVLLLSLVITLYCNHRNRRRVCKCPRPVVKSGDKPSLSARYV

Molecular target: GFRα4 isoform b (GFRα4b), Fc fusion (human)
Assay: flow cytometry of CAR T cells stained with Fc-fusion antigen and anti-human Fc-specific antibodies (FIG. 19C)

binding	Substance
binds	CAR-10 (from UniProt P01732 183-206; Q07011 214-255; P20963 52-163)
binds	CAR-25 (from UniProt P01732 183-206; Q07011 214-255; P20963 52-163)
binds	CAR-14 (from UniProt P01732 183-206; Q07011 214-255; P20963 52-163)
binds	CAR-29 (from UniProt P01732 183-206; Q07011 214-255; P20963 52-163)
